# PubChem BioAssay AID1508597 – Cure First – 2020
# Aim: 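Survival screen with siRNA in ovarian cancer cells derived from patients, with or without rucaparib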 (primary screen)
# Cell system: human ovarian carcinoma lines grown from tumours: OCI-P5x (papillary serous) and OCI-C5x (clear cell)
# Reagent: siRNA pool against human genes, 1.25 pmol siRNA per well
# Duration: 72 h or 96 h, depending on the cell culture
# Conditions: rucaparib 20 µM (about IC30) or vehicle, present until read-out
# Rucaparib or vehicle: Vehicle
# Cell line: OCI-C5x (clear cell)
# Read-out: 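ATP luminescence measured at 72 or 96 h according to the culture, then normalised and expressed as percent viability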
# Direction: viability, normalised: higher = more viable cells remaining
# Active means: 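a well counts as a hit if its normalised viability is under 80 percent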
# Calls: active = viability under 80%; inactive = viability 80% or more
# This is an unselected part of the about 2,100 reagents, in one setting of the screen. 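Calls flag viability under 80% in either arm, not effects specific to rucaparib; the reference for percent is not stated.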 Some reagents were tested in more than one well and are listed for each. Reagent sequences are not shown. Not given: the 100% reference.
target gene,technical replicate,"viability, normalised (%)",activity call
NUAK2 (GeneID 81788),1,54.2,active
NUAK2 (GeneID 81788),2,56.8,active
NUAK2 (GeneID 81788),3,52,active
PDE11A (GeneID 50940),1,67.3,active
PDE11A (GeneID 50940),2,52.8,active
PDE11A (GeneID 50940),3,45.5,active
DDX49 (GeneID 54555),1,37.4,active
DDX49 (GeneID 54555),2,48.2,active
DDX49 (GeneID 54555),3,50.3,active
PAF1 (GeneID 54623),1,43.4,active
PAF1 (GeneID 54623),2,40.1,active
PAF1 (GeneID 54623),3,41.9,active
RRM2 (GeneID 6241),1,34.7,active
RRM2 (GeneID 6241),2,33.8,active
RRM2 (GeneID 6241),3,28.6,active
TGFBR3 (GeneID 7049),1,58.4,active
TGFBR3 (GeneID 7049),2,66.3,active
TGFBR3 (GeneID 7049),3,44.1,active
CREBBP (GeneID 1387),1,36,active
CREBBP (GeneID 1387),2,37.8,active
CREBBP (GeneID 1387),3,31.7,active
FASTK (GeneID 10922),1,68.6,active
FASTK (GeneID 10922),2,59.9,active
FASTK (GeneID 10922),3,33.6,active
ALKBH3 (GeneID 221120),1,59.6,active
ALKBH3 (GeneID 221120),2,66.7,active
ALKBH3 (GeneID 221120),3,56.7,active
DDX1 (GeneID 1653),1,30,active
DDX1 (GeneID 1653),1,51.5,active
DDX1 (GeneID 1653),2,28.7,active
DDX1 (GeneID 1653),2,61.7,active
DDX1 (GeneID 1653),3,28.3,active
DDX1 (GeneID 1653),3,54.5,active
SMARCA5 (GeneID 8467),1,60.7,active
SMARCA5 (GeneID 8467),2,51,active
SMARCA5 (GeneID 8467),3,53.2,active
ILK (GeneID 3611),1,97.4,inactive
ILK (GeneID 3611),2,105,inactive
ILK (GeneID 3611),3,109,inactive

Quoted from the listing (4 entries):
target gene,technical replicate,"viability, normalised (%)",activity call
CREBBP (GeneID 1387),3,31.7,active
FASTK (GeneID 10922),1,68.6,active
FASTK (GeneID 10922),2,59.9,active
FASTK (GeneID 10922),3,33.6,active
